Results as given in US7838676B2, “Beta-secretase modulators and methods of use” (Amgen Inc., priority 2005, dated 2010).
pIC50: −log10 of the molar value. Some entries share one result that the patent states for a list of compounds. For at least one compound, name, drawing or mass did not settle the structure. Each block holds one compound with its values, some of them ahead of it.

Chains of the proteins cited; added tags and fusions are not shown. Residues count along the entry.
UniProt P56817, 46-501, species assumed: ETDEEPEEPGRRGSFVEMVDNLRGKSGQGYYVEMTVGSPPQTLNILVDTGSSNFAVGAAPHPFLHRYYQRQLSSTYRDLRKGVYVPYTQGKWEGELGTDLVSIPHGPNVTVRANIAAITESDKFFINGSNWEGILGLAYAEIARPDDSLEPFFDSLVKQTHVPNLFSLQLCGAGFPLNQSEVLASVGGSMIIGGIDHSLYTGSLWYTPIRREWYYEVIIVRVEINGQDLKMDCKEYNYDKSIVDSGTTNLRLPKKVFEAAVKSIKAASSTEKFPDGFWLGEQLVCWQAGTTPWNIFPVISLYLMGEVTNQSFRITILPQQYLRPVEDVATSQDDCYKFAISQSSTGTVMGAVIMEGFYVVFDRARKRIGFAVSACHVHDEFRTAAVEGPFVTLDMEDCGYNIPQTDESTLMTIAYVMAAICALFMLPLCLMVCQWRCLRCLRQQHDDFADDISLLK

Target: BACE (Homo sapiens, UniProt P56817)
Assay: In Vitro Enzymatic BACE FRET (Fluorescence Resonance Energy Transfer) Assay
Type: biochemical
Conditions: enzyme 0.2 nM, FRET substrate 50 nM, pH 4.2

Compound: O=C(N[C@@H](Cc1ccccc1)[C@H](O)CN[C@H]1CC2(CCC2)Oc2ccc(Br)cc21)c1ccc(F)c(N2CCCC2=O)c1 [Example 90, N-((1S,2R)-3-(((4S)-6-bromo-3,4-dihydrospiro[chromene-2,1′-cyclobutan]-4-yl)amino)-2-hydroxy-1-(phenylmethyl)propyl)-4-fluoro-3-(2-oxo-1-pyrrolidinyl)benzamide]
- pIC50: ≥ 5.30

Compound: Cc1ccc2c(c1)C(NCC(O)C(Cc1ccccc1)NC(=O)c1ccnc(N3CCCC(C)C3)c1)CC1(CCCC1)O2 [Example 80, N-((2S,3R)-3-hydroxy-4-((S)-6-methyl-2,2-spirocyclopentylchroman-4-ylamino)-1-phenylbutan-2-yl)-2-(3-methylpiperidin-1-yl)isonicotinamide]
- pIC50: ≥ 5.30

Compound: CCc1ccc2c(c1)C(NC[C@@H](O)[C@H](Cc1ccccc1)NC(=O)c1ccc3c(c1)[C@@H](OCc1ccccc1)CC3)CC1(CCCC1)O2 (stereo partly drawn) [Example 59, (S)-3-(benzyloxy)-N-((2S,3R)-4-(6-ethyl-2,2-spirocyclopentyl-chroman-4-ylamino)-3-hydroxy-1-phenylbutan-2-yl)-2,3-dihydro-1H-indene-5-carboxamide]
- pIC50: ≥ 5.30

Compound: CCc1ccc2c(c1)[C@@H](NC[C@@H](O)[C@H](Cc1ccccc1)NC(=O)c1ccc(Br)o1)CC1(CCCC1)O2 [Example 130, 5-bromo-N-((2S,3R)-4-((S)-6-ethyl-2,2-spirocyclopentylchroman-4-ylamino)-3-hydroxy-1-phenylbutan-2-yl)furan-2-carboxamide]
- pIC50: ≥ 5.30

Compound: O=C(N[C@@H](Cc1ccccc1)[C@H](O)CN[C@H]1CC2(CCC2)Oc2ccc(OC(F)(F)F)cc21)c1ccno1 [Example 63, N-((1S,2R)-2-hydroxy-1-(phenylmethyl)-3-(((4S)-6-((trifluoromethyl)oxy)-3,4-dihydrospiro[chromene-2,1′-cyclobutan]-4-yl)amino)propyl)-5-isoxazolecarboxamide]
- pIC50: ≥ 5.30

Compound: CCc1ccc2c(c1)[C@@H](NC[C@@H](O)[C@H](Cc1ccccc1)NC(=O)c1cc(C)nc(N3CCC(C)CC3)c1)CC1(CCCC1)O2 [Example 186, N-((2S,3R)-4-((S)-6-ethyl-2,2-spirocyclopentylchroman-4-ylamino)-3-hydroxy-1-phenylbutan-2-yl)-2-methyl-6-(4-methylpiperidin-1-yl)isonicotinamide]
- pIC50: ≥ 5.30

Compound: CCc1ccc2c(c1)C(NCC(O)C(Cc1ccccc1)NC(=O)c1cc(Cl)nc(N3CCCC(C)C3)c1)CC1(CCCC1)O2 [Example 184, 2-chloro-N-((2S,3R)-4-((S)-6-ethyl-2,2-spirocyclopentylchroman-4-ylamino)-3-hydroxy-1-phenylbutan-2-yl)-6-(3-methylpiperidin-1-yl)isonicotinamide]
- pIC50: ≥ 5.30

Compound: CCc1ccc2c(c1)[C@@H](NC[C@@H](O)[C@H](Cc1ccccc1)NC(=O)c1cc(C3CCCC3)nc(-n3cccn3)c1)CC1(CCCC1)O2 [Example 153, 2-cyclopentyl-N-((2S,3R)-4-((S)-6-ethyl-2,2-spirocyclopentylchroman-4-ylamino)-3-hydroxy-1-phenylbutan-2-yl)-6-(1H-pyrazol-1-yl) isonicotinamide]
- pIC50: ≥ 5.30

Compound: CCc1ccc2c(c1)C(NCC(O)C(Cc1ccccc1)NC(=O)c1ccnc(N3CCCC(C)C3)c1)CC1(CCCC1)O2 [Example 177, N-((2S,3R)-4-((S)-6-ethyl-2,2-spirocyclopentylchroman-4-ylamino)-3-hydroxy-1-phenylbutan-2-yl)-2-(3-methylpiperidin-1-yl)isonicotinamide]
- pIC50: ≥ 5.30

Compound: O=C(N[C@@H](Cc1ccccc1)[C@H](O)CN[C@H]1CC2(CCC2)Oc2ccc(OC(F)(F)F)cc21)c1ccc(F)c(N2CCCC2=O)c1 [Example 62, 4-fluoro-N-((1S,2R)-2-hydroxy-1-(phenylmethyl)-3-(((4S)-6-((trifluoromethyl)oxy)-3,4-dihydrospiro[chromene-2,1′-cyclo-butan]-4-yl)amino)propyl)-3-(2-oxo-1-pyrrolidinyl)benzamide]
- pIC50: ≥ 5.30

Compound: CC(C)(C)Cc1ccc2c(c1)[C@@H](NC[C@@H](O)[C@H](Cc1ccccc1)NC(=O)c1ccc(F)c(N3CCCC3=O)c1)CC1(CCC1)O2 [Example 120, N-((1S,2R)-3-(((4S)-6-(2,2-dimethylpropyl)-3,4-dihydrospiro[chromene-2,1′-cyclobutan]-4-yl)amino)-2-hydroxy-1-(phenylmethyl)propyl)-4-fluoro-3-(2-oxo-1-pyrrolidinyl) benzamide]
- pIC50: ≥ 5.30

Compound: C[C@H]1CCCN(c2cc(C(=O)N[C@@H](Cc3ccccc3)[C@H](O)CN[C@H]3CC4(CCC4)Oc4ccc(Br)cc43)ccn2)C1 [Example 91, N-((1S,2R)-3-(((4S)-6-bromo-3,4-dihydrospiro[chromene-2,1′-cyclobutan]-4-yl)amino)-2-hydroxy-1-(phenylmethyl)propyl)-2-((3S)-3-methyl-1-piperidinyl)-4-pyridinecarboxamide]
- pIC50: ≥ 5.30

Compound: O=C(N[C@@H](Cc1ccccc1)[C@H](O)CN[C@H]1CC2(CCC2)Oc2ccc(N3CCOCC3)cc21)c1ccc(F)c(N2CCCC2=O)c1 [Example 126, 4-fluoro-N-((1S,2R)-2-hydroxy-3-(((4S)-6-(4-morpholinyl)-3,4-dihydrospiro[chromene-2,1′-cyclobutan]-4-yl)amino)-1-(phenylmethyl)propyl)-3-(2-oxo-1-pyrrolidinyl)benzamide]
- pIC50: ≥ 5.30

Compound: CCc1ccc2c(c1)[C@@H](NC[C@@H](O)[C@H](Cc1ccccc1)NC(=O)c1cc(Cl)nc(N3CCC[C@@H](F)C3)c1)CC1(CCCC1)O2 [Example 197, 2-chloro-N-((1S,2R)-3-(((4S)-6-ethyl-3,4-dihydrospiro[chromene-2,1′-cyclopentan]-4-yl)amino)-2-hydroxy-1-(phenylmethyl)propyl)-6-((3R)-3-fluoro-1-piperidinyl)-4-pyridinecarboxamide]
- pIC50: ≥ 5.30

Compound: CCc1ccc2c(c1)[C@@H](NC[C@@H](O)[C@H](Cc1ccccc1)NC(=O)c1ccc(-c3ccccc3F)o1)CC1(CCC1)O2 [Example 201, N-((1S,2R)-3-(((4S)-6-ethyl-3,4-dihydrospiro[chromene-2,1′-cyclobutan]-4-yl)amino)-2-hydroxy-1-(phenylmethyl)propyl)-5-(2-fluorophenyl)-2-furancarboxamide]
- pIC50: ≥ 5.30

Compound: COc1cc(C(=O)N[C@@H](Cc2ccccc2)[C@H](O)CN[C@H]2CC3(CCCC3)Oc3ccc(Br)cc32)cc(N2CCC[C@@H](C)C2)n1 [Example 114, N-((1S,2R)-3-(((4S)-6-bromo-3,4-dihydrospiro[chromene-2,1′-cyclopentan]-4-yl)amino)-2-hydroxy-1-(phenylmethyl)propyl)-2-(methyloxy)-6-((3R)-3-methyl-1-piperidinyl)-4-pyridinecarboxamide]
- pIC50: ≥ 5.30

Compound: CCc1ccc2c(c1)[C@@H](NC[C@@H](O)[C@H](Cc1ccccc1)NC(=O)c1cc(Cl)nc(N3CCC[C@@H](C(F)(F)F)C3)c1)CC1(CCCC1)O2 [Example 196, 2-chloro-N-((1S,2R)-3-(((4S)-6-ethyl-3,4-dihydrospiro[chromene-2,1′-cyclopentan]-4-yl)amino)-2-hydroxy-1-(phenylmethyl)propyl)-6-((3R)-3-(trifluoromethyl)-1-piperidinyl)-4-pyridinecarboxamide]
- pIC50: ≥ 5.30

Now from value to compound:

- pIC50: ≥ 5.30
Compound: CCc1ccc2c(c1)C(NCC(O)C(Cc1ccccc1)NC(=O)c1cc(Cl)nc(N3CCCCC3C)c1)CC1(CCCC1)O2 [Example 195, 2-chloro-N-((2S,3R)-4-((S)-6-ethyl-2,2-spirocyclopentylchroman-4-ylamino)-3-hydroxy-1-phenylbutan-2-yl)-6-(2-methylpiperidin-1-yl)isonicotinamide]

- pIC50: ≥ 5.30
Compound: CCc1ccc2c(c1)C(NCC(O)C(Cc1ccccc1)NC(=O)c1cc(OC)nc(N3CCCC(C)C3)c1)CC1(CCCC1)O2 [Example 178, N-((2S,3R)-4-((S)-6-ethyl-2,2-spirocyclopentylchroman-4-ylamino)-3-hydroxy-1-phenylbutan-2-yl)-2-methoxy-6-(3-methyl-piperidin-1-yl)isonicotinamide]

- pIC50: ≥ 5.30
Compound: CC1CCCN(c2cc(C(=O)NC(Cc3ccccc3)C(O)CNC3CC4(CCCC4)Oc4ccccc43)ccn2)C1 [Example 85, N-((2S,3R)-4-((S)-2,2-spirocyclopentylchroman-4-ylamino)-3-hydroxy-1-phenylbutan-2-yl)-2-(3-methylpiperidin-1-yl)isonicotinamide]

- pIC50: ≥ 5.30
Compound: CC(C)(C)Cc1cnc2c(c1)[C@@H](NC[C@@H](O)[C@H](Cc1ccccc1)NC(=O)c1nc(Cl)ccc1F)CC1(CCC1)O2 [Example 95, 6-chloro-N-((1S,2R)-3-(((4′S)-6′-(2,2-dimethylpropyl)-3′,4′-dihydrospiro[cyclobutane-1,2′-pyrano[2,3-b]pyridin]-4′-yl)amino)-2-hydroxy-1-(phenylmethyl)propyl)-3-fluoro-2-pyridinecarboxamide]

- pIC50: ≥ 5.30
Compound: CCc1ccc2c(c1)[C@@H](NC[C@@H](O)[C@H](Cc1ccccc1)NC(=O)c1ncccn1)CC1(CCCC1)O2 [Example 145, N-((2S,3R)-4-((S)-6-ethyl-2,2-spirocyclopentylchroman-4-ylamino)-3-hydroxy-1-phenylbutan-2-yl)pyrimidine-2-carboxamide]

- pIC50: ≥ 5.30
Compound: CC(C)(C)Cc1cnc2c(c1)[C@@H](NC[C@@H](O)[C@H](Cc1cc(F)cc(F)c1)NC(=O)c1nc(Cl)ccc1F)CC1(CCC1)O2 [Example 122, 6-chloro-N-((1S,2R)-1-((3,5-difluorophenyl)methyl)-3-(((4′S)-6′-(2,2-dimethyl-propyl)-3′,4′-dihydrospiro[cyclobutane-1,2′-pyrano[2,3-b]pyridin]-4′-yl)amino)-2-hydroxypropyl)-3-fluoro-2-pyridinecarboxamide]

- pIC50: ≥ 5.30
Compound: CCc1ccc2c(c1)[C@@H](NC[C@@H](O)[C@H](Cc1ccccc1)NC(=O)c1cnn(-c3ccccc3)c1C)CC1(CCCC1)O2 [Example 136, N-((2S,3R)-4-((S)-6-ethyl-2,2-spirocyclopentylchroman-4-ylamino)-3-hydroxy-1-phenylbutan-2-yl)-5-methyl-1-phenyl-1H-pyrazole-4-carboxamide]

- pIC50: ≥ 5.30
Compound: CCc1ccc2c(c1)C(NCC(O)C(Cc1ccccc1)NC(=O)c1cc(C3CCCC3)cc(C3CCCCN3C(C)=O)c1)CC1(CCCC1)O2 [Example 6, 3-(1-acetylpiperidin-2-yl)-5-cyclopentyl-N-((2S,3R)-4-((S)-6-ethyl-2,2-spirocyclopentylchroman-4-ylamino)-3-hydroxy-1-phenylbutan-2-yl)benzamide]
